{"source": "patent US20120027687A1", "about": "“FATTY ACID PROTEIN KINASE C ACTIVATORS AND ANTICOAGULANT FOR THE TREATMENT OF STROKE” (priority 2010, published 2012)", "origin": "cited, not measured here", "key": {"[1]": {"test_system": "murine leukemias and solid tumors", "conditions": "cited from earlier work"}, "PKC": {"test_system": "PKC", "conditions": "K562 cells; cited from earlier work"}, "[2]": {"test_system": "cyclin dependent kinase 2 (Cdk2)", "conditions": "at 5 ng/ml; cited from earlier work"}}, "note": "At least one structure is not confirmed: it was looked up by name or label, or the drawing left a doubt."}
{"compound": "C=C(C)[C@@]12C[C@@H](COC(=O)c3ccccc3)[C@@]34OC5(O[C@@H]1[C@@H]3[C@@H]1O[C@]1(CO)[C@@H](O)[C@@]1(O)[C@H]4[C@H]([C@H](C)[C@@H]1OC(=O)c1ccccc1)[C@H](C)CCCCCC[C@H]5O)O2", "note": "[Gnidimacrin]", "values": [{"measurement": "concentrations of potent antitumor activity", "setting": "[1]", "result": "0.1 nM-1 nM"}, {"measurement": "concentration at which it acts as PKC activator", "setting": "PKC", "result": 0.3, "unit": "nM"}, {"measurement": "inhibition of Cdk2", "setting": "[2]", "result": 100, "unit": "%"}]}
